Results deposited as PubChem BioAssay AID504764 (Drosophila RNAi Screening Center, 2011).
The deposit covers about 22,000 reagents; below is a random part of those that have a named target and a result. In the full data, 403 (1.9%) are marked active. 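Unnormalised raw counts per well; ratio z-scores behind the hit calls and whether each hit raises or lowers signal are not deposited.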 Not given: the amount of reagent.

- Test: 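Knock-downs that raise or lower a Notch target reporter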 (primary screen)
- Cells: Drosophila Kc167 cells
- Knock-down reagent: long dsRNA against Drosophila genes
- Timing: about 5 days (4 days dsRNA, then 24 h after transfection)
- Challenge: transfection of constitutively active membrane-tethered Notch lacking the extracellular domain, read 24 h later
- Measurement: 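Light from a Notch-responsive E(spl)m3 luciferase reporter under active Notch, with control-promoter and no-Notch reporter wells to normalise; raw counts from paired wells a and b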
- Direction: induced reporter light, run 1, well a and induced reporter light, run 1, well b: higher = more light from the Notch target reporter with active Notch; control promoter light, run 1, well a and control promoter light, run 1, well b: higher = more light from the viral control promoter (cell number, transfection, viability); uninduced reporter light, run 1, well a: higher = more light from the Notch target reporter without active Notch
- Call rule: 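Wells with low control signal or poorly matching duplicates excluded; duplicates averaged; per source plate, z beyond ±2 for induced/control log2 ratio or beyond ±1.8 for induced/uninduced marks a hit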
- Calls: active = modifier hit (raised or lowered Notch signal); inactive = not a hit

predicted target,dsRNA,"induced reporter light, run 1, well a","induced reporter light, run 1, well b","control promoter light, run 1, well a","control promoter light, run 1, well b","uninduced reporter light, run 1, well a",outcome
CG6765,DRSC10706,1.91e5,1.84e5,1.95e5,1.38e5,8780,inactive
CG34228,DRSC05300,2.47e5,2.00e5,2.22e5,2.32e5,23705,inactive
ogre (optic ganglion reduced),DRSC18809,2.12e5,2.01e5,2.33e5,2.12e5,14705,inactive
Ugt301D1 (UDP-glycosyltransferase family 301 member D1),DRSC02021,1.71e5,1.70e5,1.91e5,1.66e5,16770,inactive
Octalpha2R (alpha2-adrenergic-like octopamine receptor),DRSC13319,54485,51610,91675,1.05e5,8615,active
Octalpha2R (alpha2-adrenergic-like octopamine receptor),DRSC15314,1.77e5,1.61e5,2.05e5,2.07e5,12180,inactive
Mmp2 (Matrix metalloproteinase 2),DRSC06698,1.59e5,1.67e5,2.51e5,2.19e5,16405,inactive
CarT (Carcinine transporter),DRSC03196,2.13e5,2.58e5,1.27e5,1.16e5,17155,active
CG14406,DRSC19592,82335,92540,1.07e5,76265,12115,inactive
lic (licorne),DRSC20347,1.65e5,1.42e5,1.75e5,1.99e5,16595,inactive
Rpp25 (Ribonuclease P/MRP subunit p25),DRSC05002,1.80e5,1.53e5,1.52e5,1.59e5,10545,inactive
Dnali1 (Dynein axonemal light intermediate chain 1),DRSC16158,1.51e5,1.41e5,92425,84170,10440,inactive
Gbp2 (Growth-blocking peptide 2),DRSC06069,92335,1.16e5,1.48e5,1.85e5,9882,inactive
CG6980,DRSC16162,1.48e5,1.73e5,2.23e5,2.15e5,15945,inactive
Sin3A,DRSC07552,1.64e5,1.70e5,1.17e5,1.10e5,6178,active
CG9068,DRSC07329,79505,56990,41120,58505,5285,inactive
Cad96Cb (Cadherin 96Cb),DRSC14243,1.50e5,1.34e5,1.73e5,1.67e5,11025,inactive
Cad96Cb (Cadherin 96Cb),DRSC14665,1.27e5,98175,1.58e5,1.83e5,11995,inactive
Jon74E (Jonah 74E),DRSC10617,1.79e5,1.46e5,2.05e5,1.88e5,7470,inactive
CG5704,DRSC08572,93195,92480,1.54e5,1.92e5,8955,inactive
PpN58A (Protein phosphatase N at 58A),DRSC04642,2.17e5,2.06e5,1.73e5,1.89e5,17355,inactive
CG33286,DRSC11691,1.56e5,1.00e5,89260,86395,14290,inactive
CG18131,DRSC00517,25070,22990,20665,19180,5750,inactive
fog (folded gastrulation),DRSC20646,1.27e5,1.31e5,1.29e5,1.09e5,12845,active
cid (centromere identifier),DRSC05429,2.38e5,2.27e5,2.87e5,2.58e5,15655,inactive
cid (centromere identifier),DRSC07592,96345,95145,1.06e5,1.09e5,7855,inactive
CAH14 (Carbonic anhydrase 14),DRSC04234,58430,48200,47100,57965,1628,inactive
CG9416,DRSC07339,79575,90835,1.31e5,1.31e5,12545,inactive
CG33301,DRSC02778,99685,1.17e5,71455,85440,14990,inactive
nub (nubbin),DRSC01260,1.55e5,1.25e5,1.53e5,1.69e5,8895,inactive
nub (nubbin),DRSC02498,1.61e5,1.77e5,1.63e5,1.63e5,15265,inactive
nub (nubbin),DRSC02499,66355,72460,58640,67630,6250,inactive
nub (nubbin),DRSC03583,1.13e5,1.22e5,1.27e5,1.36e5,10705,inactive
l(2)34Fc (lethal (2) 34Fc),DRSC01910,1.32e5,1.46e5,1.75e5,1.82e5,12175,inactive

Not a retest: an excerpt of the list.
predicted target,dsRNA,"induced reporter light, run 1, well a","induced reporter light, run 1, well b","control promoter light, run 1, well a","control promoter light, run 1, well b","uninduced reporter light, run 1, well a",outcome
CG34228,DRSC05300,2.47e5,2.00e5,2.22e5,2.32e5,23705,inactive
ogre (optic ganglion reduced),DRSC18809,2.12e5,2.01e5,2.33e5,2.12e5,14705,inactive
Ugt301D1 (UDP-glycosyltransferase family 301 member D1),DRSC02021,1.71e5,1.70e5,1.91e5,1.66e5,16770,inactive
Octalpha2R (alpha2-adrenergic-like octopamine receptor),DRSC13319,54485,51610,91675,1.05e5,8615,active
Octalpha2R (alpha2-adrenergic-like octopamine receptor),DRSC15314,1.77e5,1.61e5,2.05e5,2.07e5,12180,inactive
